This is an account of results in patent US9011862B2, “Inhibitors of the nitration of amyloid β peptides and their uses in the diagnosis and treatment of Alzheimer's disease” (Rheinische Friedrich-Wilhelms-Universität Bonn, priority 2009, dated 2015).

For the data set, the system named is APP/PS1 mice. The data set is described as follows: Intracerebral injection, induction of β-amyloidosis. Type of data set: in vivo, mouse. The settings on record: 2.5 μl intracerebral in 2.5 month old APP/PS1 mice, analysis after 8 weeks.

“nitrated Aβ1-42: synthetic Aβ1-42 nitrated at tyrosine 10 by peroxynitrite treatment”: the “3NTyr10-Aβ immunoreactivity in brain” value is listed as “strong 3NTyr10-Aβ immunoreactivity” and the “Iba1 (microglial activation)” value is reported as “increase”.
